In the supplement of paper PMC6078165:

System: BT20
Experiment: relative JC-1 red fluorescence (viability) vs pre-drug, coculture with fibroblast (fraction); higher = more viable cancer cells
Experimental: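 JC-1 labelled TNBC cells cocultured 1:1 (1,500 cells each) with CellTrace Violet stained primary or stromal fibroblasts in 384-well plates in FluoroBrite medium, treated with one of 42 anticancer drugs at 0.1, 1, 10 or 100 uM. JC-1 red fluorescence (mitochondrial integrity in cancer cells only) was read by plate reader every 8 h for 72 h. Values are normalised to each well's pre-drug value. The stock of one drug was tenfold lower, so its dose labels may be too high.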

CCCCCOC(=O)Nc1nc(=O)n([C@@H]2O[C@H](C)[C@@H](O)[C@H]2O)cc1F [Capecitabine]
relative JC-1 red fluorescence
Details | 8 h | 16 h | 24 h | 32 h | 40 h | 48 h | 56 h | 64 h | 72 h
10 µM, coculture fibroblast: C12385 | 0.936 | 0.847 | 0.808 | 0.75 | 0.703 | 0.668 | 0.641 | 0.612 | 0.59
10 µM, coculture fibroblast: H6013 | 0.9 | 0.865 | 0.8649 | 0.82 | 0.787 | 0.7743 | 0.7712 | 0.758 | 0.7434
10 µM, coculture fibroblast: H6019 | 0.8501 | 0.778 | 0.762 | 0.698 | 0.65 | 0.631 | 0.605 | 0.574 | 0.549
10 µM, coculture fibroblast: H6076 | 0.794 | 0.889 | 0.776 | 0.725 | 0.686 | 0.6689 | 0.654 | 0.651 | 0.642
10 µM, coculture fibroblast: H6231 | 0.7704 | 0.961 | 0.83 | 0.756 | 0.704 | 0.642 | 0.59 | 0.559 | 0.526
10 µM, coculture fibroblast: HADF | 0.989 | 0.885 | 0.844 | 0.801 | 0.762 | 0.711 | 0.703 | 0.674 | 0.635
10 µM, coculture fibroblast: HCFa | 0.959 | 0.933 | 0.905 | 0.863 | 0.837 | 0.817 | 0.786 | 0.768 | 0.732
10 µM, coculture fibroblast: HCPF | 0.902 | 0.882 | 0.78995 | 0.747 | 0.697 | 0.651 | 0.603 | 0.579 | 0.533
10 µM, coculture fibroblast: HHSteC | 0.891 | 0.8103 | 0.7784 | 0.6878 | 0.635 | 0.596 | 0.5651 | 0.54463 | 0.515
10 µM, coculture fibroblast: HMF | 0.825 | 0.91 | 0.797 | 0.7248 | 0.6655 | 0.61387 | 0.572 | 0.544 | 0.5088
10 µM, coculture fibroblast: HPFa | 0.969 | 0.882 | 0.888 | 0.808 | 0.781 | 0.731 | 0.699 | 0.661 | 0.601
10 µM, coculture fibroblast: HUF | 0.916 | 0.807 | 0.783 | 0.7 | 0.653 | 0.62 | 0.601 | 0.583 | 0.567
10 µM, coculture fibroblast: Hs5 | 0.928 | 0.912 | 0.816 | 0.757 | 0.694 | 0.654 | 0.6151 | 0.5861 | 0.56
10 µM, coculture fibroblast: Hs27A | 0.812 | 0.81 | 0.804 | 0.919 | 0.92 | 0.886 | 0.854 | 0.818 | 0.746
10 µM, coculture fibroblast: Hs343T | 0.825 | 0.878 | 0.7901 | 0.735 | 0.678 | 0.628 | 0.583 | 0.563 | 0.523
10 µM, coculture fibroblast: WS1 | 0.904 | 0.827 | 0.768 | 0.686 | 0.622 | 0.581 | 0.54 | 0.5 | 0.474
100 µM, coculture fibroblast: C12385 | 0.907 | 0.8314 | 0.778 | 0.7168 | 0.6641 | 0.6366 | 0.6068 | 0.579 | 0.5581
100 µM, coculture fibroblast: H6013 | 0.915 | 0.8733 | 0.841 | 0.807 | 0.764 | 0.756 | 0.745 | 0.724 | 0.719
100 µM, coculture fibroblast: H6019 | 0.885 | 0.825 | 0.814 | 0.752 | 0.724 | 0.703 | 0.685 | 0.674 | 0.662
100 µM, coculture fibroblast: H6076 | 0.951 | 0.917 | 0.8314 | 0.7984 | 0.75985 | 0.742 | 0.726 | 0.729 | 0.707
100 µM, coculture fibroblast: H6231 | 0.832 | 0.968 | 0.8573 | 0.7904 | 0.745 | 0.696 | 0.652 | 0.626 | 0.597
100 µM, coculture fibroblast: HADF | 0.785 | 0.853 | 0.875 | 0.857 | 0.818 | 0.77 | 0.738 | 0.699 | 0.6646
100 µM, coculture fibroblast: HCFa | 0.922 | 0.863 | 0.8342 | 0.7847 | 0.75 | 0.721 | 0.707 | 0.688 | 0.652
100 µM, coculture fibroblast: HCPF | 0.875 | 0.946 | 0.867 | 0.8078 | 0.7583 | 0.7077 | 0.6605 | 0.642 | 0.595
100 µM, coculture fibroblast: HHSteC | 0.911 | 0.85072 | 0.82087 | 0.761 | 0.722 | 0.689 | 0.656 | 0.6206 | 0.599
100 µM, coculture fibroblast: HMF | 0.982 | 0.8993 | 0.8067 | 0.7525 | 0.714 | 0.667 | 0.634 | 0.599 | 0.565
100 µM, coculture fibroblast: HPFa | 0.948 | 0.868 | 0.8715 | 0.7842 | 0.756 | 0.713 | 0.6898 | 0.6523 | 0.6067
100 µM, coculture fibroblast: HUF | 0.919 | 0.813 | 0.776 | 0.702 | 0.65 | 0.617 | 0.599 | 0.582 | 0.564
100 µM, coculture fibroblast: Hs5 | 0.84 | 0.892 | 0.8156 | 0.7673 | 0.738 | 0.701 | 0.668 | 0.642 | 0.62
100 µM, coculture fibroblast: Hs27A | 0.822 | 0.8 | 0.928 | 0.932 | 0.889 | 0.883 | 0.868 | 0.849 | 0.798
100 µM, coculture fibroblast: Hs343T | 0.836 | 0.911 | 0.834 | 0.769 | 0.726 | 0.684 | 0.631 | 0.604 | 0.564
100 µM, coculture fibroblast: WS1 | 0.8691 | 0.7718 | 0.736 | 0.672 | 0.625 | 0.6 | 0.565 | 0.543 | 0.532

Values are relative to the signal before dosing, not to a vehicle control; the signal also falls without drug.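 Fibroblast labels denote human fibroblasts, mainly primary ones from uterus (C12385, HUF), lung (H6013), bone (Hs27A), adrenal (HADF) and skin (WS1), plus mammary HMF and breast cancer-associated Hs343T. Cancer cells are basal-like or mesenchymal-like triple-negative breast cancer lines. A hit is a response shift exceeding 3x replicate standard deviation. The tissue of the other fibroblasts is not given here.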
